Changes are numbered by the printed parent chain. This is one part of the list. For part of these data: At the low end of the ranking, values are background and their order means little.
Experiments:
Conditions in all cases: yeast three-hybrid, YBZ-1, SC-Leu-His + 0.5 mM 3-AT, 4 days
[1] = molecular target: T1, PUM1 PUF domain R2-LLL N899L + Y900L + Q903L (UniProt Q14671)
T1 sequence: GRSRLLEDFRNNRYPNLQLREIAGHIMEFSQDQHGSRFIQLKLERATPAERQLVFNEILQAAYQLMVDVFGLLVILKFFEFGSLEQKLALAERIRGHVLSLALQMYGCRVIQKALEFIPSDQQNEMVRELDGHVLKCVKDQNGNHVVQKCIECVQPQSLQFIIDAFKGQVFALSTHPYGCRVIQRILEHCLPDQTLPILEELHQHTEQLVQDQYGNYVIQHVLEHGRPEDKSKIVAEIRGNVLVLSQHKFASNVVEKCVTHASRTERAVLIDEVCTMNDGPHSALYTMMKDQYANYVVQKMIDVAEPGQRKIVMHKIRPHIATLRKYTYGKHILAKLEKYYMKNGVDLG

[2] = molecular target: T2, PUM1 PUF domain R2-LLY N899L + Y900L + Q903Y (UniProt Q14671)
T2 sequence: T1 sequence with L76Y

[3] = molecular target: T3, PUM1 PUF domain R2-LWA N899L + Y900W + Q903A (Homo sapiens) (UniProt Q14671)
T3 sequence: T1 sequence with L73W, L76A

[4] = molecular target: T4, PUM1 PUF domain R2-LWD N899L + Y900W + Q903D (UniProt Q14671)
T4 sequence: T1 sequence with L73W, L76D

[5] = molecular target: T5, PUM1 PUF domain R2-LWE N899L + Y900W + Q903E (UniProt Q14671)
T5 sequence: T1 sequence with L73W, L76E

[6] = molecular target: T6, PUM1 PUF domain R2-LWG N899L + Y900W + Q903G (UniProt Q14671)
T6 sequence: T1 sequence with L73W, L76G

[7] = molecular target: T7, PUM1 PUF domain R2-LWH N899L + Y900W + Q903H (UniProt Q14671)
T7 sequence: T1 sequence with L73W, L76H

[8] = molecular target: T8, PUM1 PUF domain R2-LWL N899L + Y900W + Q903L (UniProt Q14671)
T8 sequence: T1 sequence with L73W

[9] = molecular target: T9, PUM1 PUF domain R2-LWM N899L + Y900W + Q903M (UniProt Q14671)
T9 sequence: T1 sequence with L73W, L76M

[10] = molecular target: T10, PUM1 PUF domain R2-LWQ N899L + Y900W (UniProt Q14671)
T10 sequence: T1 sequence with L73W, L76Q

[11] = molecular target: T11, PUM1 PUF domain R2-LWR N899L + Y900W + Q903R (Homo sapiens) (UniProt Q14671)
T11 sequence: T1 sequence with L73W, L76R

[12] = molecular target: T12, PUM1 PUF domain R2-LWS N899L + Y900W + Q903S (Homo sapiens) (UniProt Q14671)
T12 sequence: T1 sequence with L73W, L76S

[13] = molecular target: T13, PUM1 PUF domain R2-LWV N899L + Y900W + Q903V (UniProt Q14671)
T13 sequence: T1 sequence with L73W, L76V

[14] = molecular target: T14, PUM1 PUF domain R2-LWY N899L + Y900W + Q903Y (UniProt Q14671)
T14 sequence: T1 sequence with L73W, L76Y

[15] = molecular target: T15, PUM1 PUF domain R2-LYL N899L + Q903L (UniProt Q14671)
T15 sequence: T1 sequence with L73Y

[16] = molecular target: T16, PUM1 PUF domain R2-MVW N899M + Y900V + Q903W (UniProt Q14671)
T16 sequence: T1 sequence with L72M, L73V, L76W

[17] = molecular target: T17, PUM1 PUF domain R2-NRW Y900R + Q903W (UniProt Q14671)
T17 sequence: T1 sequence with L72N, L73R, L76W

[18] = molecular target: T18, PUM1 PUF domain R2-NWP Y900W + Q903P (Homo sapiens) (UniProt Q14671)
T18 sequence: T1 sequence with L72N, L73W, L76P

[19] = molecular target: T19, PUM1 PUF domain R2-PVM N899P + Y900V + Q903M (UniProt Q14671)
T19 sequence: T1 sequence with L72P, L73V, L76M

[20] = molecular target: T20, PUM1 PUF domain R2-PWE N899P + Y900W + Q903E (UniProt Q14671)
T20 sequence: T1 sequence with L72P, L73W, L76E

[21] = molecular target: T21, PUM1 PUF domain R2-RKA N899R + Y900K + Q903A (UniProt Q14671)
T21 sequence: T1 sequence with L72R, L73K, L76A

[22] = molecular target: T22, PUM1 PUF domain R2-RKC N899R + Y900K + Q903C (UniProt Q14671)
T22 sequence: T1 sequence with L72R, L73K, L76C

[23] = molecular target: T23, PUM1 PUF domain R2-RKG N899R + Y900K + Q903G (UniProt Q14671)
T23 sequence: T1 sequence with L72R, L73K, L76G

[24] = molecular target: T24, PUM1 PUF domain R2-RKV N899R + Y900K + Q903V (UniProt Q14671)
T24 sequence: T1 sequence with L72R, L73K, L76V

[25] = molecular target: T25, PUM1 PUF domain R2-RKW N899R + Y900K + Q903W (UniProt Q14671)
T25 sequence: T1 sequence with L72R, L73K, L76W

[26] = molecular target: T26, PUM1 PUF domain R2-RRA N899R + Y900R + Q903A (UniProt Q14671)
T26 sequence: T1 sequence with L72R, L73R, L76A

[27] = molecular target: T27, PUM1 PUF domain R2-RRC N899R + Y900R + Q903C (UniProt Q14671)
T27 sequence: T1 sequence with L72R, L73R, L76C

[28] = molecular target: T28, PUM1 PUF domain R2-RRG N899R + Y900R + Q903G (Homo sapiens) (UniProt Q14671)
T28 sequence: T1 sequence with L72R, L73R, L76G

[29] = molecular target: T29, PUM1 PUF domain R2-RRH N899R + Y900R + Q903H (UniProt Q14671)
T29 sequence: T1 sequence with L72R, L73R, L76H

[30] = molecular target: T30, PUM1 PUF domain R2-RRM N899R + Y900R + Q903M (UniProt Q14671)
T30 sequence: T1 sequence with L72R, L73R, L76M

[31] = molecular target: T31, PUM1 PUF domain R2-RRQ N899R + Y900R (UniProt Q14671)
T31 sequence: T1 sequence with L72R, L73R, L76Q

[32] = molecular target: T32, PUM1 PUF domain R2-RRS N899R + Y900R + Q903S (Homo sapiens) (UniProt Q14671)
T32 sequence: T1 sequence with L72R, L73R, L76S

[33] = molecular target: T33, PUM1 PUF domain R2-RRT N899R + Y900R + Q903T (UniProt Q14671)
T33 sequence: T1 sequence with L72R, L73R, L76T

[34] = molecular target: T34, PUM1 PUF domain R2-RRV N899R + Y900R + Q903V (Homo sapiens) (UniProt Q14671)
T34 sequence: T1 sequence with L72R, L73R, L76V

[35] = molecular target: T35, PUM1 PUF domain R2-RTS N899R + Y900T + Q903S (UniProt Q14671)
T35 sequence: T1 sequence with L72R, L73T, L76S

[36] = molecular target: T36, PUM1 PUF domain R2-RVN N899R + Y900V + Q903N (UniProt Q14671)
T36 sequence: T1 sequence with L72R, L73V, L76N

[37] = molecular target: T37, PUM1 PUF domain R2-RVT N899R + Y900V + Q903T (UniProt Q14671)
T37 sequence: T1 sequence with L72R, L73V, L76T

[38] = molecular target: T38, PUM1 PUF domain R2-SIP N899S + Y900I + Q903P (UniProt Q14671)
T38 sequence: T1 sequence with L72S, L73I, L76P

[39] = molecular target: T39, PUM1 PUF domain R2-TFG N899T + Y900F + Q903G (UniProt Q14671)
T39 sequence: T1 sequence with L72T, L73F, L76G

[40] = molecular target: T40, PUM1 PUF domain R2-VFR N899V + Y900F + Q903R (Homo sapiens) (UniProt Q14671)
T40 sequence: T1 sequence with L72V, L73F, L76R

[41] = molecular target: T41, PUM1 PUF domain R2-VFV N899V + Y900F + Q903V (UniProt Q14671)
T41 sequence: T1 sequence with L72V, L73F, L76V

[42] = molecular target: T42, PUM1 PUF domain R2-VWP N899V + Y900W + Q903P (Homo sapiens) (UniProt Q14671)
T42 sequence: T1 sequence with L72V, L73W, L76P

[43] = molecular target: T43, PUM1 PUF domain R2-VWW N899V + Y900W + Q903W (UniProt Q14671)
T43 sequence: T1 sequence with L72V, L73W, L76W

[44] = molecular target: T44, PUM1 PUF domain R2-VYL N899V + Q903L (UniProt Q14671)
T44 sequence: T1 sequence with L72V, L73Y

[45] = molecular target: T45, PUM1 PUF domain R2-VYP N899V + Q903P (UniProt Q14671)
T45 sequence: T1 sequence with L72V, L73Y, L76P

## GGCUAGAACUAGUGGAUCCCCCGGCGCCCGGCGGCUCGAGCCCGGGUAAGUGUAAACAGUCUGCAUGCCGCCGGGCGCCAUGCCUGCAGGUCGACUCUAGAAAACAUG
[1]
  binding signal (log2 enrichment (interaction score)): < -10.9
[2]
  binding signal (log2 enrichment (interaction score)): < -8.4
[3]
  binding signal (log2 enrichment (interaction score)): -1.61
[4]
  binding signal (log2 enrichment (interaction score)): < -8.76
[5]
  binding signal (log2 enrichment (interaction score)): < -8.93
[6]
  binding signal (log2 enrichment (interaction score)): < -9.63
[7]
  binding signal (log2 enrichment (interaction score)): < -5.9
[8]
  binding signal (log2 enrichment (interaction score)): < -6.85
[9]
  binding signal (log2 enrichment (interaction score)): < -6.15
[10]
  binding signal (log2 enrichment (interaction score)): < -6.57
[11]
  binding signal (log2 enrichment (interaction score)): -1.73
[12]
  binding signal (log2 enrichment (interaction score)): -0.29
[13]
  binding signal (log2 enrichment (interaction score)): < -8.16
[14]
  binding signal (log2 enrichment (interaction score)): < -8.27
[15]
  binding signal (log2 enrichment (interaction score)): < -7.83
[16]
  binding signal (log2 enrichment (interaction score)): < -6.57
[17]
  binding signal (log2 enrichment (interaction score)): < -5.62
[18]
  binding signal (log2 enrichment (interaction score)): -1.36
[19]
  binding signal (log2 enrichment (interaction score)): < -6.75
[20]
  binding signal (log2 enrichment (interaction score)): < -8.69
[21]
  binding signal (log2 enrichment (interaction score)): < -7.83
[22]
  binding signal (log2 enrichment (interaction score)): < -6.06
[23]
  binding signal (log2 enrichment (interaction score)): < -6.15
[24]
  binding signal (log2 enrichment (interaction score)): < -7.2
[25]
  binding signal (log2 enrichment (interaction score)): < -7.54
[26]
  binding signal (log2 enrichment (interaction score)): < -9.49
[27]
  binding signal (log2 enrichment (interaction score)): < -8.44
[28]
  binding signal (log2 enrichment (interaction score)): -3.57
[29]
  binding signal (log2 enrichment (interaction score)): < -7.48
[30]
  binding signal (log2 enrichment (interaction score)): < -7
[31]
  binding signal (log2 enrichment (interaction score)): < -7.1
[32]
  binding signal (log2 enrichment (interaction score)): -3.02
[33]
  binding signal (log2 enrichment (interaction score)): < -8.11
[34]
  binding signal (log2 enrichment (interaction score)): -7.19
[35]
  binding signal (log2 enrichment (interaction score)): < -8.7
[36]
  binding signal (log2 enrichment (interaction score)): < -7.51
[37]
  binding signal (log2 enrichment (interaction score)): < -7.6
[38]
  binding signal (log2 enrichment (interaction score)): < -6.09
[39]
  binding signal (log2 enrichment (interaction score)): < -6.44
[40]
  binding signal (log2 enrichment (interaction score)): -1.45
[41]
  binding signal (log2 enrichment (interaction score)): < -6.31
[42]
  binding signal (log2 enrichment (interaction score)): < -6.19
[43]
  binding signal (log2 enrichment (interaction score)): < -7.23
[44]
  binding signal (log2 enrichment (interaction score)): < -6.78
[45]
  binding signal (log2 enrichment (interaction score)): < -7.75

From publication PMC8384837
